{"source": "patent US11161830B2", "about": "“4-pyridone compound or salt thereof, and pharmaceutical composition and formulation including same” (priority 2017, dated 2021)", "system": "HBV (genotype CAT)", "assay": "Test Example 2-2: anti-HBV assay in PXB-cells (fresh human hepatocytes)", "type": "cell-based, hepatitis B virus", "settings": "PXB-cells infected with HBV genotype CAT, culture supernatant on day 32 post infection", "experimental": "Using fresh human hepatocytes (PXB-cells, manufactured by PhenixBio Co., Ltd.) collected from a PXB mouse (a chimeric mouse with human hepatocytes), the anti-HBV activity of the representative compounds was evaluated in the following procedure.\nThe following was used as a medium:\nDMEM (manufactured by Sigma)+0.25 μg/mL insulin (manufactured by Wako)+1% penicillin/streptomycin. (manufactured by Sigma)+20 mmol/L HEPES (manufactured by Sigma)+15 μg/mL L-proline (manufactured by Sigma)+50 nmol/L dexamethasone (manufactured by Sigma)+5 ng/mL EGF (manufactured by Peprotech)+0.1 mmol/L ascorbic acid 2-phosphate (manufactured by Wako)+10% FBS+2% DMSO\nEach of the test compounds) was further added to the medium to prepare a test solution containing each of the test compounds at various concentrations.\n(1) PXB-cells seeded at a seeding density of 2.1×10^5 cells/cm^2 in a 96-well microliter plate were incubated in a 5% CO2 incubator at 37° C. until a day on which the cells were infected.\n(2) A HBV (genotype CAT) prepared by transfecting an HBV plasmid into an HepG2 cell was suspended in the medium containing 4% PEG-8000, and added to the plate of (1) at about 30 copies/cell such that the PXB cells were infected (100 μL/well), and the plate was incubated in a 5% CO2 incubator at 37° C. for 1 day.\n(3) The culture supernatant on day 1 post infection was removed and the cells were washed three times with DMEM containing 10% FBS and 1% penicillin/streptomycin. Then, the medium was added to the plate (100 μL/well) and the plate was incubated in a 5% CO2 incubator at 37° C. for 1 day.\n(4) The culture supernatant on day 2 post infection was removed and the cells were washed three times with DMEM containing 10% FBS and 1% penicillin/streptomycin. Then, the medium was added to the plate (100 μL/well) and the plate was incubated in a 5% CO2 incubator at 37° C. for 5 days.\n(5) The culture supernatant on day 7 post infection was removed, the medium was added to the plate (100 μL/well), and the plate was incubated in a 5% CO2 incubator at 37° C. for 5 days. […]\n(11) The collected culture supernatant on day 32 post infection was treated with a mixture of Buffer AL (manufactured by QIAGEN) and Proteinase K (manufactured by Invitrogen). The amount of HBV-DNA in the obtained solution was absolutely quantified by a real-time PCR method. In addition, the amount of HBsAg in the culture supernatant was absolutely quantified by chemiluminescent enzyme immunoassay using Lumipulse (registered trademark) HBsAg-HQ (manufactured by Fujirebio Inc.). A relative viral load (%) with respect to a control without the compound added was each calculated. […]", "note": "Where two headings read alike, the source gives them in different places. Some results were stated once for a whole list of compounds, not compound by compound.", "data": [{"substance": "1-(2-((3R,4R)-3,4-dimethoxypyrrolidin-1-yl)benzo[d]thiazol-6-yl)-4-oxo-6-((S)-2,3,3a,benzo[b]pyrrolo[1,2-d][1,4]oxazin-7-yl)-1,4-dihydropyridine-3-carboxylic acid [Example 18-1]", "values": [{"measurement": "IC50", "setting": "read-out: IC50 HBV-DNA", "value": "< 500", "unit": "nM"}, {"measurement": "IC50", "setting": "read-out: IC50 HBsAg", "value": "< 500", "unit": "nM"}]}, {"substance": "1-(2-morpholinebenzo[d]thiazol-6-yl)-4-oxo-6-(4-(pyrrolidin-1-yl)phenyl)-1,4-dihydropyridine-3-carboxylic acid [Example 3-4]", "values": [{"measurement": "IC50", "setting": "read-out: IC50 HBV-DNA", "value": "< 500", "unit": "nM"}, {"measurement": "IC50", "setting": "read-out: IC50 HBsAg", "value": "< 500", "unit": "nM"}]}]}
